Values quoted from earlier work, collected in US8846083B2, “Method for the diffusion of molecules which are insoluble in an aqueous medium and composition using said method” (priority 2004, dated 2014).

solubility in water: virtually insoluble in water
SMILES: CC(C)Cc1ccc(C(C)C(=O)O)cc1 (stereo not shown) [ibuprofen]
